Experimental findings from article PMC6238414 are described below.

These are yes or no findings as the source states them, for the method shown. In cells and extracts the contact can be indirect. For some of these results: A result given as binding can be weak or reduced; the word gives no strength. Sequences can lack the tags named with a protein.

Holding throughout (experiment): co-IP; COS7 cells transiently co-transfected with FLAG-SYCE2 forms and HA-HP1α forms; 500 μg lysate precipitated with anti-FLAG or normal IgG, blotted with anti-HA or anti-FLAG
For assay [1], the target named is T1, FLAG-tagged SYCE2-aa 88–218 mutant (human) (UniProt Q6PIF2).
T1 sequence: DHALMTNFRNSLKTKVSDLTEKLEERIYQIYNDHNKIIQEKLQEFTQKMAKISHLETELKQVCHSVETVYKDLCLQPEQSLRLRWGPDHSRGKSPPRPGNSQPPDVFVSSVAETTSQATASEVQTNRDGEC

In assay [2] the target is T2, full-length FLAG-SYCE2, transiently expressed in COS7 cells (human) (UniProt Q6PIF2).
T2 sequence: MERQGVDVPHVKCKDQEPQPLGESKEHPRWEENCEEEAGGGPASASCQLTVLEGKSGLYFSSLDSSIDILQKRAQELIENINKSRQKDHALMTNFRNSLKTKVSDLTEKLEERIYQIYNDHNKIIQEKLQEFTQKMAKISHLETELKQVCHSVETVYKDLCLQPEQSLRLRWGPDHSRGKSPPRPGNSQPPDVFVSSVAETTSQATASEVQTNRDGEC

The target in assay [3] is T3, FLAG-tagged deletion mutant of SYCE2 lacking only the PHVKC motif (human) (UniProt Q6PIF2).
T3 sequence: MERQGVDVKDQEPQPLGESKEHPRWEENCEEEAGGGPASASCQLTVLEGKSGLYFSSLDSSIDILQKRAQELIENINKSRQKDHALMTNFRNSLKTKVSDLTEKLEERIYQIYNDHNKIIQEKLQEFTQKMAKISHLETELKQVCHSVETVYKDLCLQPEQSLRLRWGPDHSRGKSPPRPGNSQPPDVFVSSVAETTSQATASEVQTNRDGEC

The target of assay [4] is T4, FLAG-tagged SYCE2-aa 57–218 mutant (human) (UniProt Q6PIF2).
T4 sequence: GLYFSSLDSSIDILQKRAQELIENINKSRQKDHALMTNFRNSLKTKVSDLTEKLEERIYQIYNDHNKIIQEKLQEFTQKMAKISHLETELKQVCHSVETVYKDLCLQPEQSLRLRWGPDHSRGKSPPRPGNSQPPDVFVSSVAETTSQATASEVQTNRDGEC

Assay [5] has as its target T5, FLAG-tagged SYCE2-aa 1–88 mutant (human) (UniProt Q6PIF2).
T5 sequence: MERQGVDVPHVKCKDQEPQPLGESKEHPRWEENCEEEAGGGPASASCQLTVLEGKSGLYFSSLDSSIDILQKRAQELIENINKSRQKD

Regarding “HA-tagged deletion mutant of HP1α containing only the chromoshadow domain (human (cDNA of MCF7 cells)) (domain or fragment)”, the binding result is “no binding” in assay [1]; “binds” in assay [2]; “binds” in assay [3]; “no binding” in assay [4]; “binds” in assay [5].
As for “HA-tagged deletion mutant of HP1α lacking the chromoshadow domain (human (cDNA of MCF7 cells)) (domain or fragment)”, the binding entry in assay [2] is “no binding”.
The same measure, in the same setting: then “HA-tagged deletion mutant of HP1α lacking the chromodomain (human (cDNA of MCF7 cells)) (domain or fragment)”, with “binds”.
